Data reported in US20110015138A1 (GENUS ONCOLOGY, published 2011).
These are yes or no findings as the source states them, for the method shown. For part of these data: Binding seen in cells or lysates may run through a third protein. Some entries that bind do so weakly or less than the wild type. Values belong to the molecule of their own block, whether it stands above or below them.

The chains behind the UniProt entries cited, without tags or fusion partners. Where a name states a change or a piece, a line headed by the entry shows the natural chain unless it says otherwise. Residues count along the entry.
UniProt Q04206: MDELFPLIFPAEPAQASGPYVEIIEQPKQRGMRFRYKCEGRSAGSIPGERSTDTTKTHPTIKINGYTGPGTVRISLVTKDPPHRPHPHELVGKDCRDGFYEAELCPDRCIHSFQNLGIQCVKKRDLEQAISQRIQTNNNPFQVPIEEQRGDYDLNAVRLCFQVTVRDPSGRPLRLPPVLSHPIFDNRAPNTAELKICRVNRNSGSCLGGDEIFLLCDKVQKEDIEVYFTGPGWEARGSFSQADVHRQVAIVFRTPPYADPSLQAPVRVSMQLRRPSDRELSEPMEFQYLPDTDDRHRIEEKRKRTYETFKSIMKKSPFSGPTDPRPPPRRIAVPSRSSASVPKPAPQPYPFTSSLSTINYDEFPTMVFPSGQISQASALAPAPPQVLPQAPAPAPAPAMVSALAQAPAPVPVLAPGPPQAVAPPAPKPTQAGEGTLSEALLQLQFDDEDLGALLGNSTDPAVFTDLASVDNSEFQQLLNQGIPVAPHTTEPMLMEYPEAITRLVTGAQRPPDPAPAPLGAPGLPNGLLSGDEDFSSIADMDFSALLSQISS
p65(1-180): residues 1-180 of Q04206
p65(186-306): residues 186-306 of Q04206
UniProt P40763: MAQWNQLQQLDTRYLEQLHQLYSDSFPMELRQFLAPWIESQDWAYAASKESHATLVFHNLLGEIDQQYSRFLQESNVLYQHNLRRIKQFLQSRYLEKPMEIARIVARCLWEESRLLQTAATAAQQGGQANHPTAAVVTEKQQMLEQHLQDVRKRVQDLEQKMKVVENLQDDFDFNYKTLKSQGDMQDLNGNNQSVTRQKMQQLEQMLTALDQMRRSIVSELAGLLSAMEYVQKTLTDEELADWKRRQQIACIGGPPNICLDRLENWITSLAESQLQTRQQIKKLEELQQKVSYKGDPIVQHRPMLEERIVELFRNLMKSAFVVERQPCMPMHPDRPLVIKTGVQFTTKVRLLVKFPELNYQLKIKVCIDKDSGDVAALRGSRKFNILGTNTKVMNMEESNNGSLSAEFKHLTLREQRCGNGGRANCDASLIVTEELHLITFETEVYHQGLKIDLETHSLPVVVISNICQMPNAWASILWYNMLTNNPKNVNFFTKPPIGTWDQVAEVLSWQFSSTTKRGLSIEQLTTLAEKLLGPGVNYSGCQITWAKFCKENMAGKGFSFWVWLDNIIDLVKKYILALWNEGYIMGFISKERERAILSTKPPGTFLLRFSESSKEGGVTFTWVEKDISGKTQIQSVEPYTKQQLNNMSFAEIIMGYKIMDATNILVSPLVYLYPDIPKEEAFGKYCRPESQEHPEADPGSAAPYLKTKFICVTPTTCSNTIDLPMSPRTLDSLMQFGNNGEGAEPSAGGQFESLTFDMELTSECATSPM
GST-STAT3 (DBD; amino acids 257-514): residues 257-514 of P40763
UniProt P25963: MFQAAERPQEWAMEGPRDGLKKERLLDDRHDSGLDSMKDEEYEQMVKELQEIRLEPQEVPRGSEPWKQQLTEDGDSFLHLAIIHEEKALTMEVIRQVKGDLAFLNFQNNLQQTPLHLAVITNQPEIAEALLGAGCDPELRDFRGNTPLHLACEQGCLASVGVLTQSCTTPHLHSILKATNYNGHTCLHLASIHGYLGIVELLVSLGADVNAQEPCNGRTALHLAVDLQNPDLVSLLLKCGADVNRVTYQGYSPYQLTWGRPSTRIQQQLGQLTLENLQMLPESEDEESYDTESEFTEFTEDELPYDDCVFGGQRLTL

What was measured:
p65(186-306) [1] = target: p65(186-306) (UniProt Q04206); assay: GST pull-down with purified proteins (discussion of the results)
p65(1-180) [2] = target: p65(1-180) (UniProt Q04206); assay: as above
[3] = target: T1, purified recombinant NF-κB p65 (UniProt Q04206 1-551, limits assumed); assay: as above
T1 construct: also called purified NF-κB p65

[4] = target: T2, NF-κB p65 (in cells / cell lysates) (human, UniProt Q04206 1-551); assay: GST pull-down from ZR-75-1 cell lysates, immunoblot anti-p65
T2 construct: Endogenous protein of the cell lines

[5] = target: T1, purified recombinant NF-κB p65; assay: GST pull-down (figure legend)
[6] = target: purified recombinant STAT3 (UniProt P40763 1-770, limits assumed); assay: GST pull-down of purified recombinant STAT3, immunoblot anti-STAT3
Description: FIGS. 9A-D: MUC1-C binds directly to the STAT3 DBD. (FIG. 9A) Lysates from ZR-75-1 (left) and MCF-7 (right) cells were subjected to immunoprecipitation with anti-STAT3 or a control IgG. The precipitates were immunoblotted with the indicated antibodies. (FIG. 9B) Lysates from ZR-75-1 cells were incubated with GST and GST-MUC1-CD bound to glutathione beads. The adsorbates were immunoblotted with anti-STAT3 Input of the GST and GST-MUC1-CD proteins was assessed by Coomassie blue staining. (FIG. 9C) Amino acid sequence of the MUC1 cytoplasmic domain is shown with the indicated phosphorylation and binding sites. GST, GST-MUC1-CD, GST-MUC1-CD (1-45) and GST-MUC1-CD (46-72) bound to glutathione beads were incubated with purified recombinant STAT3. The adsorbates were immunoblotted with anti-STAT3. Input of the GST and GST-MUC1-CD fusion proteins was assessed by Coomassie blue staining. (FIG. 9D) Structure of STAT3. GST, GST-STAT3 (full length; amino acids 1-770), […], […] and […] bound to glutathione beads were incubated with purified MUC1-CD. Adsorbates were immunoblotted with anti-MUC1-C. Input of the GST and GST-STAT3 fusion proteins was assessed by Coomassie blue staining.
MUC1-C directly interacts with STAT3. […]

p65(1-180) [7] = target: p65(1-180) (UniProt Q04206); assay: GST pull-down of purified p65(1-180), immunoblot anti-p65
p65(1-180) [8] = target: p65(1-180) (UniProt Q04206); assay: GST pull-down of purified p65(1-180) (figure legend)
[9] = target: T1, purified recombinant NF-κB p65; assay: GST pull-down of purified recombinant p65, immunoblot anti-p65
p65(186-306) [10] = target: p65(186-306) (UniProt Q04206); assay: GST pull-down of purified p65(186-306), immunoblot anti-p65
p65(186-306) [11] = target: p65(186-306) (UniProt Q04206); assay: GST pull-down of purified p65(186-306) (figure legend)
[12] = target: T3, STAT3 (in cells / cell lysates) (human, UniProt P40763 2-770); assay: GST pull-down from ZR-75-1 cell lysates, immunoblot anti-STAT3
T3 construct: Endogenous protein of the cell lines

[13] = target: GST-STAT3 (DBD; amino acids 257-514) (UniProt P40763); assay: GST pull-down with purified proteins (discussion of the results)
[14] = target: GST-STAT3 (DBD; amino acids 257-514) (UniProt P40763); assay: GST-STAT3 fragments pull-down of purified MUC1-CD (figure legend)
[15] = target: GST-STAT3 (DBD; amino acids 257-514) (UniProt P40763); assay: GST-STAT3 deletion mutants on glutathione beads incubated with purified MUC1-CD, immunoblot anti-MUC1-C
p65(186-306) [16] = target: p65(186-306) (UniProt Q04206); assay: competition: GST-IκBα pull-down of p65(186-306) with increasing amounts of MUC1-CD; competitor GST-IκBα

binding (p65(186-306) [1]): binds | binding (p65(1-180) [2]): binds | binding [3]: binds | binding [4]: binds | binding [5]: binds | binding [6]: binds | binding (p65(1-180) [7]): binds | binding (p65(1-180) [8]): binds | binding [9]: binds | binding (p65(186-306) [10]): binds | binding (p65(186-306) [11]): binds | binding [12]: binds
Molecule: GST-MUC1-CD (from UniProt P15941 1184-1255)

binding (p65(186-306) [1]): binds | binding (p65(186-306) [10]): binds
Molecule: GST-IκBα (from UniProt P25963 1-317)

binding [13]: binds | binding [14]: binds | binding [15]: binds | binding (p65(186-306) [16]): binds
B1: MUC1-CD (purified, GST moiety removed with thrombin) (other)
chain: CQCRRKNYGQLDIFPARDTYHPMSEYPTYHTHGRYVPPSSTDRSPYEKVSAGNGGSSLSYTNPAVAATSANL
notes: also called purified MUC1-CD; MUC1-C cytoplasmic domain
